The whole screen tested about 220,000 compounds, of which about 770 (0.35%) were called active. This list was built around the results that the source calls inconclusive (neither active nor inactive); the mix of calls is not that of the screen. No stated cut-off is given here; in the data, active means binding response below about 49% or above about 150%; inconclusive means no clear call, values can overlap the other calls; inactive means in between.
molecular target: Guanine nucleotide-binding protein G(o) subunit alpha (Homo sapiens) (UniProt P09471); test: RGS7-Galphao binding modulators, primary screen, biochemical, multiplexed bead flow cytometry (AID 1439); settings: at 10 µM, actives lie on both sides;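 further: fluorescent Galphao held in activated GDP-AlF4 state binding bead-coupled RGS7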

Sequences of proteins named here, by UniProt entry; tags and fusion partners are left off.
UniProt P09471, whole entry, looked up: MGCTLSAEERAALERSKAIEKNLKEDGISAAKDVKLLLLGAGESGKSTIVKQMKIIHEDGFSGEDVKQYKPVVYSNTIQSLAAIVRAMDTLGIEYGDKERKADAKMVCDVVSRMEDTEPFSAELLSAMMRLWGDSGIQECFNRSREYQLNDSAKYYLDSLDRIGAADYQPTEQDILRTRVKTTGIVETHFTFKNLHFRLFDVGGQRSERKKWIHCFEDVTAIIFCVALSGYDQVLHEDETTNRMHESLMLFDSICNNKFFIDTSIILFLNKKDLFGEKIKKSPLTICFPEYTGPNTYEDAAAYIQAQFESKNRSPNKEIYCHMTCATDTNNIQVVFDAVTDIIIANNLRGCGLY

Compound	binding response (% of control)
Clc1cc2c(c(CSc3nc4ccccc4n4cccc34)c1)OCOC2	inconclusive: 179%
CCOC(=O)N1CCN(c2nc3ccccc3n3cnnc23)CC1	inconclusive: 98.6%
COc1ccccc1NC(=O)Cn1c(=O)n(-c2ccccc2)c(=O)c2oc3ccccc3c21	inactive: 99.5%
O=C(CN1CCN(c2ccccc2F)CC1)N1N=CCC1c1ccccc1 (stereo unspecified)	inactive: 103%
Cc1[nH]c2ccccc2c1-c1csc(NC(=O)CSCC(=O)O)n1	inconclusive: 128%
O=C(Nc1ccc2[nH]c(=O)[nH]c2c1)c1ccc(Cl)c(Cl)c1	inconclusive: 91%
O=S(=O)(Nc1ccccc1)c1ccc2c(c1)CCO2	inconclusive: 112%
COc1ccccc1NS(=O)(=O)c1cc(NC(=O)C(C)C)ccc1N1CCCCC1	inconclusive: 76.2%
COC(=O)c1sccc1NC(=O)c1cc(C)on1	inactive: 96%
O=C1COc2ccc(C(=O)CCl)cc2N1	inconclusive: 103%
CCCCN(CCCC)C(=O)C1(P(=O)(c2ccccc2)c2ccccc2)CCC1	inconclusive: 118%
COc1cc(OC)nc(/N=C/NO)n1	inconclusive: 27.4%
COc1cccc(C(=O)NC(=S)Nc2nnn(C)n2)c1	inactive: 101%
O=C(Cn1cnc2ccccc2c1=O)Nc1ccc(N2CCOCC2)cc1	inconclusive: 118%
Cc1ccc(C(=O)C2Oc3ccccc3C3CC(c4ccc(C)cc4)=NN23)cc1 (stereo unspecified)	inactive: 82.6%
CCn1c(SCC(=O)N2CCCCC2)nnc1-c1ccc(S(=O)(=O)N2CCN(C)CC2)cc1	inactive: 101%
Cc1ccc(O)c(NC(=S)NC(=O)COc2ccc(Br)cc2)c1	inconclusive: 120%
C/C=C/c1cc(CN2CCN(c3ccccc3)CC2)c(O)c(OC)c1	inconclusive: 92.8%
COc1ccccc1N1CCN(C(=S)NC(=O)/C=C/c2ccccc2)CC1	inconclusive: 117%
Cc1ccc(N=C(N)N=C(N)N)cc1	inconclusive: 92.9%
O=C(c1ccoc1)N1CCC2(CC1)Oc1ccc(Cl)cc1C(=O)C21CC(c2cccnc2)=NO1 (stereo unspecified)	inconclusive: 118%
COc1ccc2c(c1)[nH]c1c(=O)n(/N=C/c3ccc(OC)c(CN4CCCC4)c3)cnc12	inconclusive: 28.1%
CCOC(=O)C1CCCN(c2c(NCCC(C)C)c(=O)c2=O)C1 (stereo unspecified)	inconclusive: 46.4%

Compound	binding response (% of control)
Cc1cc(=O)n(-c2ccc(Cl)cc2)c(=O)[nH]1	inconclusive: 96.3%
CCc1cc2c(=O)[nH]c(COC)nc2s1	inactive: 98.4%
Cc1cc(Cl)c(O)c(-n2nc3ccccc3n2)c1	inconclusive: 108%
Cc1ccnc2nc(C(=O)Nc3cc(Cl)ccc3N3CCOCC3)nn12	inactive: 98.5%
CC(=O)C1=C(S(=O)(=O)c2ccc(C)cc2)CS(=O)(=O)C1	inactive: 93%
Cc1ccc(CN2CCN(Cc3cnc(N4CCOCC4)s3)CC2CCO)o1 (stereo unspecified)	inactive: 99.2%
Nc1cccc(S(=O)(=O)Nc2ccc(SC(F)F)cc2)c1	inconclusive: -346%
Cc1ccc(OCCCCNC2CCCCC2)c(C)c1	inactive: 101%
Nc1nnc(SCc2c(F)cccc2Cl)s1	inconclusive: 123%
Cc1cccc2nc(-c3ccccc3)nc(N[C@@H](CO)c3ccccc3)c12	inactive: 96.9%
CCN(CC)S(=O)(=O)c1ccc(/C=C/C(=O)Nc2c(C)n(C)n(-c3ccccc3)c2=O)cc1	inconclusive: 82.3%
O=C(NN1C(=O)C2C(C1=O)C1C=CC2C12CC2)c1ccc(Cl)cc1 (stereo unspecified)	inconclusive: 84.9%
CC1=C(C(=O)Nc2ccc(F)c(F)c2)C(c2cccs2)NC(=S)N1 (stereo unspecified)	inactive: 102%
COc1ccc(CN2CSC(=S)N(Cc3ccc(OC)cc3)C2)cc1	inconclusive: -152%
COc1cccc(NC(=S)N(Cc2ccccn2)Cc2ccccc2Cl)c1	inconclusive: 101%
CCCCCCC(=O)OCC(=O)c1ccc2c(c1)NC(=O)CO2	inconclusive: 113%
O=C(O)c1nnn(-c2cccc(C(F)(F)F)c2)c1-c1ccccc1	inconclusive: 144%
COC(=O)C1=C(C)Nc2c(c(=O)n(C)c(=O)n2C)C1c1ccncc1 (stereo unspecified)	inactive: 98.9%
CC1CCN(c2ccc(S(=O)(=O)NC3=NCCCCC3)cc2[N+](=O)[O-])CC1	inconclusive: 114%
C[C@]12CCC3c4ccc(OCC(=O)O)cc4CCC3C1CCC2=O (stereo partly specified)	inconclusive: 98.3%
CCOc1ccccc1/C=N/Nc1nc2c(N)ncnc2n1[C@H]1O[C@@H](CO)[C@H](O)[C@@H]1O	inconclusive: 70.9%
CC(=O)c1ccc(N2CCN(c3ccc(C(N)=O)cc3[N+](=O)[O-])CC2)cc1	inconclusive: 114%
NC(=S)N/N=C/c1c(O)c(Br)cc2oc3c(c12)CCCC3	inconclusive: 132%

Compound	binding response (% of control)
O=S(=O)(c1ccc(F)cc1)N1CCC2(CC1)OCCO2	inconclusive: 109%
C=CCN(CC(=O)O)S(=O)(=O)c1ccccc1C(F)(F)F	inconclusive: 100%
FC(F)Oc1ccc(-n2cc(-c3ccccc3)[n+]3c2CCCCC3)cc1	inconclusive: 88.8%
COc1ccccc1-c1nn(Cc2ccccc2)cc1/C=C/C(=O)O	inconclusive: 110%
COc1cc2c(cc1OC)C(C)N(S(=O)(=O)c1cn(C)cn1)CC2 (stereo unspecified)	inconclusive: 153%
CCC(=O)c1ccc(OCC(=O)N2CCCC2)c(OC)c1	inactive: 102%
COc1cc(OC)c2c(-c3ccccc3)cc(=O)oc2c1C(CC(=O)N1CCOCC1)c1ccc(N(C)C)cc1 (stereo unspecified)	inconclusive: 135%
CCCCc1nc2ccc(S(=O)(=O)O)cc2[nH]1	inconclusive: 104%
N#C/C(=C\c1c(Cl)cccc1Cl)c1nc2ccccc2[nH]1	inconclusive: 142%
CC(=O)Nc1ccc(S(=O)(=O)N2CCN(c3cc(C(F)(F)F)ccn3)CC2)cc1	inconclusive: 92.4%
COc1ccc(-c2c[n+](CC(=O)c3cccs3)c3n2CCC3)cc1	inconclusive: 88.1%
Cn1c(=O)[nH]c(=O)c2c1nc(Br)n2C/C=N/NC(=O)c1ccccc1	inconclusive: 211%
Cc1csc(SCC(=O)Nc2sccc2C(N)=O)n1	inconclusive: 97.2%
CCOC(=O)c1cc2c(=O)n3ccccc3nc2n(CC2CCCO2)c1=NC(=O)/C=C/c1ccccc1 (stereo unspecified)	inconclusive: 79.7%
COC(=O)c1ccc(-c2ccc([C@H]3[C@H]4C=CC[C@@H](C)[C@@H]4C(=O)N3Cc3ccccc3)c(F)c2)cc1	inconclusive: 137%
CCOC(=O)C1(CCOC)CCN(Cc2cnc(-c3cccc(C)c3)nc2)CC1	inactive: 99.2%
O=C(CC1NCCc2ccccc21)Nc1ccc(Oc2ccccc2)cc1 (stereo unspecified)	inconclusive: 84.7%
COc1cc(OC)cc(C(=O)NCC(=O)OCC(=O)Nc2cc(S(C)(=O)=O)ccc2Cl)c1	inconclusive: -375%
Cc1nc(S/C(=C\c2ccc(-c3ccc(C(=O)O)c(Cl)c3)o2)C(=O)O)n[nH]1	inconclusive: 96.2%
CCCCCCC(C)OC(=O)c1ccccc1C(=O)O (stereo unspecified)	inconclusive: -63.4%
COc1ccc(/C=C2\CCCC3C2=NC(=S)NC3c2ccc(OC)cc2)cc1 (stereo unspecified)	inactive: 106%
COc1cc(O)cc2cc3c(c(O)c12)C(=O)CC(C)(O)O3 (stereo unspecified)	inconclusive: 99.6%
CCCc1c(C(=O)Nc2ccc(F)cc2C)cnn1-c1ccccc1	inconclusive: 63%

2 records picked at random from those above:
Compound	binding response (% of control)
FC(F)Oc1ccc(-n2cc(-c3ccccc3)[n+]3c2CCCCC3)cc1	inconclusive: 88.8%
CCOC(=O)c1cc2c(=O)n3ccccc3nc2n(CC2CCCO2)c1=NC(=O)/C=C/c1ccccc1 (stereo unspecified)	inconclusive: 79.7%

Continued.

Compound	binding response (% of control)
O=Cc1ccc(Oc2ccc(F)cc2)nc1	inconclusive: 85.6%
C=CCNC(=O)Nc1ccc(Br)cc1Cl	inconclusive: 101%
C=C1CCN(Cc2ccccc2)S(=O)(=O)c2ccccc21	inconclusive: 59.8%
Cc1cc(C(=O)COC(=O)C2=NNC(=O)CC2)c(C)n1CCc1ccccc1	inconclusive: 132%
CN(C)/C=C1\N=C(c2cccnc2Oc2ccc(Cl)cc2)OC1=O	inconclusive: 124%
Cc1ccc(F)cc1S(=O)(=O)NCc1ccc(N2CCN(C)CC2)cc1	inconclusive: 304%
C/C=C(\C)C(=O)Nc1cccc(C2=NOC3(C2)C[C@H](C(N)=O)N(C(=O)CC#N)C3)c1 (stereo partly specified)	inconclusive: 82.6%
COCCCNC1CS(=O)(=O)CC1O (stereo unspecified)	inconclusive: 109%
CC(C)(C)SCCNC(=O)/C=C/c1ccccc1	inconclusive: 52.6%
COC(=O)[C@H](CC(C)C)NC(=O)N1CCC(C)CC1	inconclusive: 27%
CCN1C(=O)C(CC(=O)Nc2ccc(F)cc2)N(Cc2cccs2)C1=S (stereo unspecified)	inconclusive: 99.3%
COc1ccc(C(=O)NCC(=O)OCC(=O)N2CCC(C)CC2)cc1OC	inconclusive: 104%
COCC(C)n1c(SCc2ccc(OC)c(F)c2)nc2ccccc2c1=O (stereo unspecified)	inactive: 104%
CN1CCN(c2ccc(NC(=O)c3ccc(C(F)(F)F)cc3)cn2)CC1	inconclusive: 115%
COC(C[C@H](O)[C@H](C)[C@@H](O)COCc1ccccc1)OC	inconclusive: 50.8%
CC1(C)CC(=O)C2=C(C1)NC(=S)C(C#N)C21CCCCC1 (stereo unspecified)	inconclusive: 91.1%
O=C(OCC(=O)N1CCc2ccccc2C1)c1cc(=O)[nH]c2ccccc12	inconclusive: 84.7%
O=C(CN1CCN(c2ncccn2)CC1)N1CCCC1	inactive: 101%
NNC(=O)CNc1cccc(Br)c1	inconclusive: 95.7%
N/N=C/C(=N\Nc1ccc(Cl)cc1)C(=O)c1ccncc1	inconclusive: 73.1%
CN(C)S(=O)(=O)c1ccc2nnn(O)c2c1	inactive: 97.6%
C/C(CC(=O)Nc1ccc(Cl)cc1C(F)(F)F)=N\NC(=O)c1cccs1	inconclusive: 98.9%
